Reference: publication doi:10.1101/2021.08.27.457910
No constants are given. Whether binding was seen depends on the method and setting. For some assays here: A result given as binding can be weak or reduced; the word gives no strength.

Columns and labels:
Sgo1_(1-415) (human) = test: cross-linking
[1] = target: Sgo1_(1-527 4A)-LacI-GFP (human); test: LacO-LacI tethering assay
[2] = target: Sgo1_(1-527 Nmut)-LacI-GFP (human); test: LacO-LacI tethering assay
[3] = target: Sgo1_(130-280)-LacI-GFP (human); test: LacO-LacI tethering assay
[4] = target: Sgo1_(274-415)-LacI-GFP (human); test: LacO-LacI tethering assay
[5] = target: Sgo1_(130-280 4A)-LacI-GFP (human); test: LacO-LacI tethering assay
[6] = target: Sgo1_(159-240 4A)-LacI-GFP (human); test: LacO-LacI tethering assay
[7] = target: Sgo1_(1-130)-LacI-GFP (human); test: LacO-LacI tethering assay
[8] = target: Sgo1_(415-527)-LacI-GFP (human); test: LacO-LacI tethering assay
[9] = target: Sgo1_(1-527)-LacI-GFP (human); test: LacO-LacI tethering assay
[10] = target: Sgo1_(159-240)-LacI-GFP (human); test: LacO-LacI tethering assay

B1: Borealin_(10-280) (subunit of CPC_(ISB10-280)) (domain or fragment, UniProt Q53HL2 10-280)
chain: VAKTNSLRRRKLASFLKDFDREVEIRIKQIESDRQNLLKEVDNLYNIEILRLPKALREMNWLDYFALGGNKQALEEAATADLDITEINKLTAEAIQTPLKSAKTRKVIQVDEMIVEEEEEEENERKNLQTARVKRCPPSKKRTQSIQGKGKGKRSSRANTVTPAVGRLEVSMVKPTPGLTPRFDSRVFKTPGLRTPAAGERIYNISGNGSPLADSKEIFLTVPVGGGESLRLLASDLQRHSIAQLDPEALGNIKKLSNRLAQICSSIRTHK
With B1 the binding (Sgo1_(1-415) (human)) was “binds”.

B2: Borealin (endogenous) (protein, UniProt Q53HL2 1-280)
chain: MAPRKGSSRVAKTNSLRRRKLASFLKDFDREVEIRIKQIESDRQNLLKEVDNLYNIEILRLPKALREMNWLDYFALGGNKQALEEAATADLDITEINKLTAEAIQTPLKSAKTRKVIQVDEMIVEEEEEEENERKNLQTARVKRCPPSKKRTQSIQGKGKGKRSSRANTVTPAVGRLEVSMVKPTPGLTPRFDSRVFKTPGLRTPAAGERIYNISGNGSPLADSKEIFLTVPVGGGESLRLLASDLQRHSIAQLDPEALGNIKKLSNRLAQICSSIRTHK
In the case of B2, the binding [1] is reported as “binds”, the binding [2] is reported as “binds” and the binding [3] is reported as “binds”. For the same binder, the binding [4] was “no binding”, the binding [5] was “no binding” and the binding [6] was “no binding”. The binding [7] was “binds”, the binding [8] was “no binding” and the binding [9] was “binds”. For the same binder, the binding [10] was “binds”.
